PubChem BioAssay AID493014 (National Center for Advancing Translational Sciences (NCATS), 2011)
The other results are listed elsewhere or left out. The main result of the screen is listed elsewhere. These columns were measured beside it and carry no call. Most of these compounds were active or inconclusive in the main read-out, so they are no random draw. Potencies come from curve fits of mixed quality, noted in brackets.

Assay: qHTS Assay to Find Inhibitors of Chronic Active B-Cell Receptor Signaling
Conditions: ABC-DLBCL IkBa-CBG/CBR reporter, luminescence ratio (green luciferase fused to IkBa over red control in TMD8 lymphoma cells), 4 h
In short: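 Cell line TMD8 (human ABC DLBCL), stably expressing tet-inducible CBG68-IkBa fusion and CBR; IMDM/0.5% FBS; cpd up to 46 uM; dox induction, 4 h, 37C/5% CO2; dual luminescence; green/red ratio; MG132 control.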

[1] = measured here: CBR red luminescence, cell number
[2] = measured here: IkBa-CBG green luminescence

| SMILES | AC50 [1] | AC50 [2] |
| --- | --- | --- |
| Cc1nnc(Nc2ccccc2)n(N)c1=O | 29.1 µM [rising, single point] | 29.1 µM [falling, single point] |
| COc1ccccc1CNc1nc2nc3c(c(=O)n2[nH]1)CCC3 | 6.31 µM [falling, partial curve, poor fit] | – |
| COc1cc(/C=N/NC(=O)c2ccoc2C)cc(OC)c1O | 16.4 µM [falling, partial curve, poor fit] | – |
| C#Cc1cccc(NC(=O)c2ccc(Cl)cc2Cl)c1 | 0.447 µM [rising, full curve, poor fit] | – |
| Cc1cc(Cl)c(OCCCCN2CCOCC2)c(Br)c1 | 6.51 µM [rising, partial curve, poor fit] | – |
| CCn1c(SCC(=O)Nc2ccc3c(c2)OCCO3)nnc1-c1cccs1 | 0.103 µM [falling, full curve, poor fit] | – |
| Cc1cc(C)c(N(C(=O)c2csnn2)C(C(=O)NC2CCCC2)c2ccncc2)c(C)c1 (configuration not stated) | 11.2 µM [rising, partial curve, poor fit] | – |
| COc1ccc(-c2nc3sc(CCNC(=O)Cc4ccc(Cl)cc4)c(C)n3n2)cc1 | 0.562 µM [rising, full curve, poor fit] | – |
| CCc1cccc(Nc2cc(C)nc3nc(C)nn23)c1 | 25.9 µM [rising, partial curve, poor fit] | – |
| O=C(Nc1cccc2ccccc12)N1CCOCC1 | 6.51 µM [rising, single point] | – |
| COc1cc(C(=O)NC2CCN(Cc3nnnn3Cc3cccs3)CC2)cc(OC)c1OC | 2.06 µM [falling, partial curve, poor fit] | – |
| Cc1cccc(OCC(=O)N(Cc2cccs2)C2CCS(=O)(=O)C2)c1C (configuration not stated) | 13 µM [falling, partial curve] | – |
| O=C(Nc1ccc2ccccc2n1)C1CCCCC1 | 3.98 µM [falling, partial curve] | – |
| Cc1cccc(NC(=O)c2cnn(-c3ccccc3)c2C)c1C | 14.1 µM [falling, partial curve, poor fit] | – |
| O=C(CCl)N1c2ccccc2CCc2ccccc21 | 35.5 µM [falling, single point] | – |
| CC1CCN(CC(=O)n2c3c(c4ccccc42)CCCC3)CC1 | 20.6 µM [rising, single point] | – |
| O=C(O)COn1c(-c2ccccc2)nc2ccc([N+](=O)[O-])cc21 | 20 µM [falling, single point] | – |
| O=C(Nc1ccc(Cl)c(Cl)c1)Nc1nnc(-c2ccncc2)s1 | 0.58 µM [rising, full curve, poor fit] | – |
| CCc1nc(Nc2ccccc2OC)c2oc3ccccc3c2n1 | 10 µM [falling, partial curve, poor fit] | – |
| COc1ccc(CN2CCN(C(=O)c3ccc(CNS(=O)(=O)c4ccc(C)cc4)cc3)CC2)c(OC)c1OC | 2.51 µM [rising, full curve, poor fit] | – |

| SMILES | AC50 [1] | AC50 [2] |
| --- | --- | --- |
| Cc1cc(C=C2C(=O)c3ccccc3C2=O)c(C)n1C | 29.1 µM [falling, partial curve, poor fit] | – |
| CCOC(=O)C1=C(CC)OC(N)=C(C#N)C1c1ccc(OC)c(C)c1OC (configuration not stated) | – | 18.4 µM [falling, partial curve, poor fit] |
| COc1ccc(C(=O)Nc2cccc(/C(C)=N\NC(=O)c3ccoc3C)c2)cc1OC | 4.47 µM [falling, full curve] | – |
| O=c1c2cc(Br)ccc2nc(-c2ccccc2)n1O | 1.41 µM [falling, full curve] | – |
| CC(=O)Nc1ccc(Nc2nc3c(S(=O)(=O)c4ccc(C)c(C)c4)nnn3c3ccccc23)cc1 | 10 µM [falling, partial curve, poor fit] | – |
| OCCN1CCN(CC(O)COc2ccc(C34CC5CC(CC(C5)C3)C4)cc2)CC1 (configuration not stated) | 12.6 µM [falling, single point] | – |
| Cn1c(=O)n(C)c2cc(NS(=O)(=O)c3ccc(C(C)(C)C)cc3)ccc21 | 14.1 µM [rising, partial curve, poor fit] | – |
| CC(C)C(=O)N(c1cc2sc(=O)oc2c2ccccc12)S(=O)(=O)c1cccs1 | 29.1 µM [falling, partial curve, poor fit] | – |
| COc1ccc(NC2=C(NC(C)=O)C(=O)c3ccccc3C2=O)cc1 | 31.6 µM [rising, partial curve, poor fit] | – |
| O=C(OCc1ccccn1)c1ccc(COc2ccc3ccccc3c2)o1 | 11.2 µM [falling, partial curve] | – |
| O=C(Oc1ccc(N(C(=O)c2ccncc2)S(=O)(=O)c2ccc(F)cc2)cc1)c1ccncc1 | 5.01 µM [falling, partial curve, poor fit] | – |
| Cc1nc(NC2CCCC2)sc1C(=O)N(C)C | 6.51 µM [rising, single point] | – |
| Cc1ccc2nc(NCc3ccccc3)[nH]c2c1 | 3.98 µM [rising, partial curve, poor fit] | 22.4 µM [falling, single point] |
| Cc1ccc(S(=O)(=O)N(C)c2ccc(C(=O)N3CCCCC3)cc2)cc1 | 29.1 µM [rising, single point] | – |
| COc1ccc(-c2nonc2NC(=O)c2oc3ccccc3c2C)cc1OC | 0.708 µM [rising, full curve] | – |
| COc1ccc(S(=O)(=O)Cc2ccccc2)cc1N | 15.8 µM [rising, partial curve, poor fit] | – |
| CCCCOc1c(Br)cc(CNCCCN2CCOCC2)cc1OC | 35.5 µM [falling, single point] | – |
| COc1cc(OC)c2c(c1)OC(=O)CC2c1ccc2c(c1)OCO2 (configuration not stated) | 32.6 µM [rising, partial curve, poor fit] | – |
| CCOc1ccc(NC(=O)C2CCCN(S(=O)(=O)c3cnc[nH]3)C2)cc1 (configuration not stated) | 11.2 µM [falling, partial curve, poor fit] | – |
| C(=N\Nc1ccc2ccccc2n1)/c1ccc2c(c1)OCCO2 | 7.94 µM [falling, partial curve] | – |

Copied from above, 11 compounds:

| SMILES | AC50 [1] | AC50 [2] |
| --- | --- | --- |
| CC(C)C(=O)N(c1cc2sc(=O)oc2c2ccccc12)S(=O)(=O)c1cccs1 | 29.1 µM [falling, partial curve, poor fit] | – |
| COc1ccc(NC2=C(NC(C)=O)C(=O)c3ccccc3C2=O)cc1 | 31.6 µM [rising, partial curve, poor fit] | – |
| O=C(OCc1ccccn1)c1ccc(COc2ccc3ccccc3c2)o1 | 11.2 µM [falling, partial curve] | – |
| O=C(Oc1ccc(N(C(=O)c2ccncc2)S(=O)(=O)c2ccc(F)cc2)cc1)c1ccncc1 | 5.01 µM [falling, partial curve, poor fit] | – |
| Cc1nc(NC2CCCC2)sc1C(=O)N(C)C | 6.51 µM [rising, single point] | – |
| Cc1ccc2nc(NCc3ccccc3)[nH]c2c1 | 3.98 µM [rising, partial curve, poor fit] | 22.4 µM [falling, single point] |
| Cc1ccc(S(=O)(=O)N(C)c2ccc(C(=O)N3CCCCC3)cc2)cc1 | 29.1 µM [rising, single point] | – |
| COc1ccc(-c2nonc2NC(=O)c2oc3ccccc3c2C)cc1OC | 0.708 µM [rising, full curve] | – |
| COc1ccc(S(=O)(=O)Cc2ccccc2)cc1N | 15.8 µM [rising, partial curve, poor fit] | – |
| CCCCOc1c(Br)cc(CNCCCN2CCOCC2)cc1OC | 35.5 µM [falling, single point] | – |
| COc1cc(OC)c2c(c1)OC(=O)CC2c1ccc2c(c1)OCO2 (configuration not stated) | 32.6 µM [rising, partial curve, poor fit] | – |
